Test results reported in paper PMC7862277.
Results are given in words; binding and its absence hold for the method and conditions named. Binding seen in cells or lysates may run through a third protein. Some entries that bind do so weakly or less than the wild type. For part of these data: Tags and fused reporters may be left off the sequences shown.

Chains of the proteins cited; added tags and fusions are not shown.
UniProt P03372: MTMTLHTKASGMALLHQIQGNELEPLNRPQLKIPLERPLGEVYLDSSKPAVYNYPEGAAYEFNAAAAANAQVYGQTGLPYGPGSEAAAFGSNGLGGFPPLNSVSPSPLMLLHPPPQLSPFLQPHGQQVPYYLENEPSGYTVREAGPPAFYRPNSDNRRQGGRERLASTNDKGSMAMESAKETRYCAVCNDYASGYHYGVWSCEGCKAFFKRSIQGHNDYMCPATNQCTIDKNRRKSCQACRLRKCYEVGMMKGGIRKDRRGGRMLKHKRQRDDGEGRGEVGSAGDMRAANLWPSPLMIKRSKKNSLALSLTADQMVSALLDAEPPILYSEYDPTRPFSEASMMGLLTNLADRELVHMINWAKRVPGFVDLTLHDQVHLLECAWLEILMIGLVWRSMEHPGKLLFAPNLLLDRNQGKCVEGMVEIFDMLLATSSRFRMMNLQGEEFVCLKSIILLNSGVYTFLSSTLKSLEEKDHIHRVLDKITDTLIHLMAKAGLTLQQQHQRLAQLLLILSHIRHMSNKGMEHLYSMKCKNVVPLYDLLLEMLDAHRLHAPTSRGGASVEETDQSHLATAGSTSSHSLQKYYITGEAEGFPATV

T1: FLAG-tagged NUPR1 (human) (UniProt O60356)
T1 sequence: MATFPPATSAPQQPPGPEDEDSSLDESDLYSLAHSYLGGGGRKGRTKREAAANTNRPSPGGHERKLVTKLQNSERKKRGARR


How the values were obtained:
[1] = target: T1, FLAG-tagged NUPR1 (human); assay: co-IP; whole-cell lysates of MCF-7TamR cells transfected with FLAG-tagged NUPR1, ESR1 or ESR1 deletions, with or without Tam treatment for 48 h; IP with M2 anti-FLAG antibody, Western blotting
[2] = target: T1, FLAG-tagged NUPR1 (human); assay: proximity ligation; Duolink In Situ Red kit in MCF-7TamR cells with FLAG-tagged NUPR1 and endogenous ESR1; cells treated with vehicle (ethanol) or 0.6 μM Tam for 24 h
[3] = target: FLAG-tagged ESR1 (full-length) (UniProt P03372); assay: co-IP; whole-cell lysates of MCF-7TamR cells transfected with FLAG-tagged NUPR1, ESR1 or ESR1 deletions, with or without Tam treatment for 48 h; IP with M2 anti-FLAG antibody, Western blotting

| binding [1] | binding [2] | binding [3] | Molecule |
| --- | --- | --- | --- |
| binds | binds |  | ESR1 (estrogen receptor alpha), endogenous (from UniProt P03372 1-595) |
|  |  | binds | NUPR1, endogenous (protein, UniProt O60356 1-82) MATFPPATSAPQQPPGPEDEDSSLDESDLYSLAHSYLGGGGRKGRTKREAAANTNRPSPGGHERKLVTKLQNSERKKRGARR |
